Measurements as given in the supplement of paper PMC8166895.
“And” between values parts separate entries of the source, which are not always exact repeats. Equal entries are not always repeated. Structures can show the parent of a compound that is named as a salt. The list shows a part of the results. Most entries show no effect beyond the scatter of the controls.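 A single-replicate pilot screen of approved drugs and clinical or known-target compounds measured melting temperature via differential scanning fluorimetry. Top stabilizing hits raised the melting point by 2 °C or more; negative shifts indicate destabilization.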 *1 amine or outer side, *2 acyl side, *3 side chain or, on linkers, in order; H or OH if unused. Where a SMILES comes first, the peptide text is derived from it. Bridges are numbered along the chain shown (N, C = ends). [ ]: non-standard residue; d: D form. The star is where a group is joined. pTerphenylCO(4''-OnC5H11) = CCCCCOc1ccc(-c2ccc(-c3ccc(C(=O)*)cc3)cc2)cc1; Orn(4R-OH,5R-OH) = O=C([C@H](C[C@@H](O)[C@@H](O)N[*:3])N[*:1])[*:2]; hTyr(3S-OH,4S-OH) = N[C@H](C(=O)O)[C@H](O)[C@@H](O)c1ccc(O)cc1; Pro(3S-OH,4S-Me) = C[C@H]1CN[C@H](C(=O)O)[C@H]1O; Hyp = O=C(O)[C@@H]1C[C@@H](O)CN1

Tested on: SARS-CoV-2 main protease (Mpro, nsp5)
Assay: thermal shift ΔTm of Mpro relative to plate average Tm; higher = stronger thermal stabilization of Mpro (binding)
Settings: 10 µM; protein concentration 1 µM

Compound	thermal shift ΔTm of Mpro
Cc1ccc(-c2csc3ncnc(SCCC(=O)O)c23)cc1	-0.0342 °C
OC(Cn1cncn1)(Cn1cncn1)c1ccc(F)cc1F [Fluconazole]	0.297 °C
Nc1[nH]cnc2ncnc1-2 [Adenine HCl]	0.169 °C
N=C1CCCN1Cc1[nH]c(=O)[nH]c(=O)c1Cl [Tipiracil hydrochloride]	-0.0424 °C
C[C@@H](NCCCc1cccc(C(F)(F)F)c1)c1cccc2ccccc12 [Cinacalcet HCl]	0.177 °C
CC(=O)Nc1cccc(-n2c(=O)n(C3CC3)c(=O)c3c(Nc4ccc(I)cc4F)n(C)c(=O)c(C)c32)c1	-0.317 °C
C[C@@H]1Cc2c([nH]c3ccccc23)[C@@H](c2c(F)cc(/C=C/C(=O)O)cc2F)N1CC(C)(C)F	-0.123 °C
OCCN1CCN(CC/C=C2/c3ccccc3Sc3ccc(C(F)(F)F)cc32)CC1 [Flupenthixol dihydrochloride]	-0.0233 °C
COc1cc2ncnc(Sc3nnc(C)s3)c2cc1OC	-0.153 °C
O=C(NC[C@H](O)CN1CCc2ccccc2C1)c1cc(NC2COC2)ncn1	0.00526 °C
NC(=O)CN1CCCC1=O [Piracetam]	-0.0187 °C
Cc1cc(-c2ccccc2)cc(C(=O)NNS(=O)(=O)c2ccccc2)c1F	-0.186 °C
O=C1NC(=O)C(c2cnc3ccccn23)=C1c1cn2c3c(cc(F)cc13)CN(C(=O)N1CCCCC1)CC2	-0.102 °C
Cc1cn[nH]c1 [4-Methylpyrazole]	0.0209 °C
Cc1ccc(S(=O)(=O)c2ccc([N+](=O)[O-])o2)cc1	-0.319 °C
FC(F)(F)C(Cl)Br (stereo unspecified) [Anestan]	0.00529 °C
COC(=O)Nc1nc2cc(C(=O)c3cccs3)ccc2[nH]1 [Nocodazole]	-0.113 °C
Cc1ccc(C(=O)c2ccc(CC(=O)O)n2C)cc1 [Tolmetin]	-0.116 °C
COc1cc(Br)c(Nc2nc(-c3c(C)nc4ncccn34)cs2)c(Br)c1	-0.14 °C and 0.0997 °C
CC(=O)OCC(=O)[C@@]1(O)CC[C@H]2[C@@H]3CCC4=CC(=O)CC[C@]4(C)[C@@]3(F)[C@@H](O)C[C@@]21C [Fludrocortisone acetate]	0.169 °C
CC(C)c1cc(/C=C(\C#N)C(=O)NCCCc2ccccc2)cc(C(C)C)c1O	-0.16 °C
CN1C(=O)c2sccc2N(C)c2nc(Nc3ccc(S(N)(=O)=O)cc3)ncc21	-0.243 °C
NS(=O)(=O)c1cc(C2(O)NC(=O)c3ccccc32)ccc1Cl (stereo unspecified) [Chlortalidone]	0.112 °C
CC(C)(C)c1cnc(CSc2cnc(NC(=O)C3CCNCC3)s2)o1	-0.0868 °C

Some of the entries above in a different format.
Compound,thermal shift ΔTm of Mpro
Cc1ccc(-c2csc3ncnc(SCCC(=O)O)c23)cc1,-0.0342 °C
OC(Cn1cncn1)(Cn1cncn1)c1ccc(F)cc1F [Fluconazole],0.297 °C
Nc1[nH]cnc2ncnc1-2 [Adenine HCl],0.169 °C
N=C1CCCN1Cc1[nH]c(=O)[nH]c(=O)c1Cl [Tipiracil hydrochloride],-0.0424 °C
C[C@@H](NCCCc1cccc(C(F)(F)F)c1)c1cccc2ccccc12 [Cinacalcet HCl],0.177 °C
CC(=O)Nc1cccc(-n2c(=O)n(C3CC3)c(=O)c3c(Nc4ccc(I)cc4F)n(C)c(=O)c(C)c32)c1,-0.317 °C
C[C@@H]1Cc2c([nH]c3ccccc23)[C@@H](c2c(F)cc(/C=C/C(=O)O)cc2F)N1CC(C)(C)F,-0.123 °C
OCCN1CCN(CC/C=C2/c3ccccc3Sc3ccc(C(F)(F)F)cc32)CC1 [Flupenthixol dihydrochloride],-0.0233 °C
COc1cc2ncnc(Sc3nnc(C)s3)c2cc1OC,-0.153 °C
NC(=O)CN1CCCC1=O [Piracetam],-0.0187 °C
Cc1cc(-c2ccccc2)cc(C(=O)NNS(=O)(=O)c2ccccc2)c1F,-0.186 °C
O=C1NC(=O)C(c2cnc3ccccn23)=C1c1cn2c3c(cc(F)cc13)CN(C(=O)N1CCCCC1)CC2,-0.102 °C
Cc1ccc(S(=O)(=O)c2ccc([N+](=O)[O-])o2)cc1,-0.319 °C
FC(F)(F)C(Cl)Br (stereo unspecified) [Anestan],0.00529 °C
COC(=O)Nc1nc2cc(C(=O)c3cccs3)ccc2[nH]1 [Nocodazole],-0.113 °C
Cc1ccc(C(=O)c2ccc(CC(=O)O)n2C)cc1 [Tolmetin],-0.116 °C
CC(=O)OCC(=O)[C@@]1(O)CC[C@H]2[C@@H]3CCC4=CC(=O)CC[C@]4(C)[C@@]3(F)[C@@H](O)C[C@@]21C [Fludrocortisone acetate],0.169 °C
CC(C)c1cc(/C=C(\C#N)C(=O)NCCCc2ccccc2)cc(C(C)C)c1O,-0.16 °C
CN1C(=O)c2sccc2N(C)c2nc(Nc3ccc(S(N)(=O)=O)cc3)ncc21,-0.243 °C
CC(C)(C)c1cnc(CSc2cnc(NC(=O)C3CCNCC3)s2)o1,-0.0868 °C

Part of the list above, in markdown.

| Compound | thermal shift ΔTm of Mpro |
| --- | --- |
| O=C(NC[C@H](O)CN1CCc2ccccc2C1)c1cc(NC2COC2)ncn1 | 0.00526 °C |
| NC(=O)CN1CCCC1=O [Piracetam] | -0.0187 °C |

Continued:

Compound	thermal shift ΔTm of Mpro
CCCCCCCCCCCCCCCC(=O)OC/C=C(C)/C=C/C=C(C)/C=C/C1=C(C)CCCC1(C)C [Retinol palmitate]	0.162 °C
CC(C)c1c(C(=O)Nc2ccccc2)c(-c2ccccc2)c(-c2ccc(F)cc2)n1CC[C@@H](O)C[C@@H](O)CC(=O)O [Atorvastatin Calcium]	0.0335 °C
CC(=O)OCC(=O)[C@@]1(O)CC[C@H]2[C@@H]3CCC4=CC(=O)CC[C@]4(C)[C@H]3[C@@H](O)C[C@@]21C [Hydrocortisone acetate]	-0.0178 °C
CCN[C@H]1CN(CCCOC)S(=O)(=O)c2sc(S(N)(=O)=O)cc21 [Brinzolamide]	0.432 °C
CC(C)Oc1ccc(-c2c[nH]cc2CN(C)CCN)cc1	-0.0807 °C
CNS(=O)(=O)c1ccccc1Nc1nc(Nc2ccc(N3CCN(C)CC3)cc2OC)ncc1Cl [ALK inhibitor 2]	0.095 °C
O=S(=O)(c1ccc2c(c1)C(=NO)c1cc(S(=O)(=O)N3CCCCC3)ccc1-2)N1CCCCC1	-0.159 °C
C#Cc1cccc(Nc2ncnc3cc(OC)c(OCCCCCCC(=O)NO)cc23)c1	0.122 °C
CC(=O)S[C@@H]1CC2=CC(=O)CC[C@]2(C)[C@H]2CC[C@@]3(C)[C@@H](CC[C@@]34CCC(=O)O4)[C@H]12 [Spironolactone]	0.111 °C
COc1cccc2c1c(O)c(C(=O)N(C)c1ccc(C(F)(F)F)cc1)c(=O)n2C [Tasquinimod]	-0.139 °C
CCCc1cc(C(N)=S)ccn1 [Protionamide]	0.0401 °C
CC(=O)Nc1ccc(C(=O)Nc2ccccc2N)cc1 [CI994 (Tacedinaline)]	0.203 °C
COc1cc2c(Nc3ccc(NC(=O)c4ccccc4)cc3)ncnc2cc1OCCCN1CCOCC1	0.208 °C
CC(Cc1cccc(C(F)(F)F)c1)NCCOC(=O)c1ccccc1 (stereo unspecified) [Benfluorex hydrochloride]	0.13 °C
O=C(O)[C@]1(Cc2cccc(Nc3nccs3)n2)CC[C@@H](Oc2cccc(Cl)c2F)CC1	0.158 °C
O=C(Nc1ccc(O)c(C(=O)O)c1)c1cccc(NC(=O)c2ccco2)c1	-0.0931 °C
C=C1CC[C@H](O)C/C1=C/C=C1\CCC[C@]2(C)[C@@H]([C@H](C)CCCC(C)C)CC[C@@H]12 [Vitamin D3]	0.588 °C
Cc1ccc(/C=C2\SC(=S)N(CCCCCC(=O)Nc3ccc(C(=O)O)c(O)c3)C2=O)cc1	-0.0418 °C
CC(C)(O)[C@H]1CC[C@@](C)([C@H]2[C@@H](O)C[C@@]3(C)[C@@H]4C[C@H](O[C@@H]5O[C@H](CO)[C@@H](O)[C@H](O)[C@H]5O)[C@H]5C(C)(C)[C@@H](O[C@@H]6OC[C@@H](O)[C@H](O)[C@H]6O)CC[C@@]56C[C@@]46CC[C@]23C)O1 [Astragaloside A]	-0.0988 °C
CC(C)c1c(CN(C)C(C)Cc2ccccc2)n(C)n(-c2ccccc2)c1=O (stereo unspecified) [Famprofazone]	0.122 °C
CN1CCN(C(=O)/C=C/c2ccc([N+](=O)[O-])o2)CC1	-0.0556 °C
Cc1nccnc1N1CCCCC1 [Modaline sulfate]	0.236 °C
C[C@@H](Oc1ccc2[nH]nc(/C=C/c3cnn(CCO)c3)c2c1)c1c(Cl)cncc1Cl	-0.244 °C
O=P1(NCCCl)OCCCN1CCCl (stereo unspecified) [Ifosfamide]	0.276 °C

Compound	thermal shift ΔTm of Mpro
CC[C@H]1[C@@H](O)[C@@H]2[C@H](CC[C@]3(C)[C@@H]([C@H](C)CCC(=O)O)CC[C@@H]23)[C@@]2(C)CC[C@@H](O)C[C@@H]12 [Obeticholic Acid]	-0.0524 °C
CNC1CCCN(c2c(F)cc3c(=O)c(C(=O)O)cn(C4CC4)c3c2OC)C1 (stereo unspecified) [Balofloxacin]	0.0493 °C
CC1=C(C)C(=O)C(CCCCCCCCCC[P+](c2ccccc2)(c2ccccc2)c2ccccc2)=CC1=O [Visomitin]	0.0701 °C
CN1CCC(=C2c3ccccc3C=Cc3ccccc32)CC1 [Cyproheptadine HCl]	0.0534 °C
O=C(Nc1ccc(Br)cc1)c1ccc(Br)c(S(=O)(=O)NCc2ccccc2)c1	-0.00677 °C
CO[C@H]1/C=C/O[C@@]2(C)Oc3c(C)c(O)c4c(O)c(c(/C=N/N5CCN(C6CCCC6)CC5)c(O)c4c3C2=O)NC(=O)/C(C)=C\C=C\[C@H](C)[C@H](O)[C@@H](C)[C@@H](O)[C@@H](C)[C@H](OC(C)=O)[C@@H]1C [Rifapentine]	0.0509 °C
N=C(N)NC(=N)NCCc1ccccc1 [Phenformin HCl]	-0.0289 °C
CC[C@H](CO)Nc1nc(N(C)Cc2ccccc2)c2ncn(C(C)C)c2n1 [Aftin-4]	0.0348 °C
CNC(=O)c1ccccc1Nc1nc(Nc2ccc(N3CCNCC3)cc2)ncc1Cl	0.322 °C
CCNC(=O)[C@H]1O[C@@H](n2cnc3c(N)nc(NCCc4ccc(CCC(=O)O)cc4)nc32)[C@H](O)[C@@H]1O	-0.0586 °C
COC(=O)N[C@H](C(=O)N1CC2(CC2)C[C@H]1c1ncc(-c2ccc3c(c2)C(F)(F)c2cc(-c4ccc5nc([C@@H]6[C@H]7CC[C@H](C7)N6C(=O)[C@@H](NC(=O)OC)C(C)C)[nH]c5c4)ccc2-3)[nH]1)C(C)C [Ledipasvir acetone]	0.0148 °C
O=C(COc1cccc2c(=O)[nH]ccc12)c1ccccc1	-0.181 °C
CC1=C(C(=O)Nc2ccc3[nH]ncc3c2)C(c2ccc(F)c(C(=O)NCc3ccccn3)c2)NC(=O)N1 (stereo unspecified)	-0.0578 °C
CC1=C[C@@H]2[C@H]3[C@H](C(C)=C4[C@H]5OC(=O)[C@@H](C)[C@@H]5CC[C@](C)(O)[C@@H]43)[C@@]13[C@@H]2[C@@](C)(O)CC[C@H]1[C@H](C)C(=O)O[C@@H]13 [Absinthiin]	-0.0384 °C
O=C1CCC[C@@H]2[C@H]3CCCN4CCC[C@@H](CN12)[C@@H]34 [(+)-Matrine]	-0.148 °C
CCOCCn1c(C2CCN(CCc3ccc(C(C)(C)C(=O)O)cc3)CC2)nc2ccccc21 [Bilastine]	0.265 °C
Nc1ccc(S(=O)(=O)NC(=O)c2ccccc2)cc1 [Sulfabenzamide]	-0.193 °C
CCCCCOc1ccc(-c2ccc(-c3ccc(C(=O)N[C@H]4C[C@@H](O)[C@@H](O)NC(=O)[C@@H]5[C@@H](O)[C@@H](C)CN5C(=O)[C@H]([C@@H](C)O)NC(=O)[C@H]([C@H](O)[C@@H](O)c5ccc(O)cc5)NC(=O)[C@@H]5C[C@@H](O)CN5C(=O)[C@H]([C@@H](C)O)NC4=O)cc3)cc2)cc1 ({pTerphenylCO(4''-OnC5H11)}-[Orn(4R-OH,5R-OH)]T[Hyp][hTyr(3S-OH,4S-OH)]T[Pro(3S-OH,4S-Me)]; lactam 1-C)	-0.269 °C
CC(C)c1nc(N(C)S(C)(=O)=O)nc(-c2ccc(F)cc2)c1/C=C/[C@@H](O)C[C@@H](O)CC(=O)O [Rosuvastatin Calcium]	-0.0119 °C
CC(C)c1nc(N(C)S(C)(=O)=O)nc(-c2ccc(F)cc2)c1/C=C/[C@@H](O)C[C@@H](O)CC(=O)O [Rosuvastatin]	0.38 °C
C=C(C)[C@@H]1CC[C@]2(C(=O)O)CC[C@]3(C)[C@H](CC[C@@H]4[C@@]5(C)CC[C@H](O)C(C)(C)[C@@H]5CC[C@]43C)[C@@H]12 [Betulinic acid]	0.174 °C
C1N2CN3CN1CN(C2)C3 [Methenamine]	0.198 °C
Cc1cccc(C)c1NC1=NCCCS1 [Xylazine HCl]	0.0679 °C
